A short description of the assay: qHTS Assay to Find Inhibitors of Chronic Active B-Cell Receptor Signaling. The following applies: ABC-DLBCL IkBa-CBG/CBR reporter, luminescence ratio (green luciferase fused to IkBa over red control in TMD8 lymphoma cells), 4 h. Summed up: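 TMD8 ABC-DLBCL cells carrying doxycycline-inducible green luciferase fused to IkappaBalpha plus unfused red luciferase were exposed to compounds (up to 46 uM) for 4 hrs at 37C. Activity came from the overlap-corrected green/red luminescence ratio.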
(Quantitative high-throughput screening tests each substance at several concentrations.)

Setting [1] is: measured here: CBR red luminescence, cell number.
Setting [2] is: measured here: IkBa-CBG green luminescence.

This is one part of the list. The main result of the screen is listed elsewhere. These columns were measured beside it and carry no call. The list favours compounds with an active or inconclusive main result. Words in brackets tell the shape of the fitted curve; partial curves, single points and poor fits give uncertain potencies.

Data on 64 compounds can be found in PubChem BioAssay AID493014 (National Center for Advancing Translational Sciences (NCATS), 2011).

As usually defined, the AC50 is the concentration at which the activity in the assay is half-maximal.

As for `CSc1ccccc1NC(=O)c1noc2c1CCC2`, the concentration at half-maximal activity (AC50) under setting [1] is 2.91 µM [falling, partial curve, poor fit].
`O=C(O)c1ccc(-n2c(-c3ccccc3)n[nH]c2=S)cc1`: under setting [1], the AC50 is 7.94 µM [falling, partial curve, poor fit].
`Cc1ccc(-c2nn(C)c(=O)c3ccccc23)cc1S(=O)(=O)N1CCCC1`: the AC50 under setting [1] was 29.1 µM [rising, single point].
Still for that read-out and setting: for `COc1cc2[nH]c3c(N4CCN(c5ccccn5)CC4)ncnc3c2cc1OC` the value was 15.8 µM [falling, single point].
Same read-out and setting: for `COc1ccc(-c2nc3c4ccccc4ccn3c2CN2CCOCC2)cc1OC` the value was 1.26 µM [rising, full curve].
As to `O=C(Nc1ccc2ncccc2c1)Nc1ccc2ncccc2c1`, the half-maximal activity concentration (AC50) under setting [1] is 0.794 µM [rising, full curve].
Regarding `Cc1nc(NCc2ccco2)c2c3c(sc2n1)CCC3`, the half-maximal activity concentration (AC50) under setting [1] is 5.01 µM [rising, partial curve].
Same read-out and setting: for `N#CCCn1nc(-c2ccccc2)cc1Nc1ccccc1NC(=O)C(F)(F)F` the value was 7.31 µM [falling, partial curve, poor fit]; for `CCOc1ccccc1C(=O)NCCCN1CCN(CCCNC(=O)c2ccccc2OCC)CC1`, 7.31 µM [rising, single point]; for `Cc1ccc(OCCCCN2CCc3ccccc3C2)cc1`, 5.01 µM [rising, full curve].
As to `C/C(=N\NC(=O)c1ccoc1C)c1ccccc1`, the concentration at half-maximal activity (AC50) under setting [1] is 12.6 µM [falling, partial curve, poor fit].
On the same count and under the same terms, then `Cc1ccc2c(c1)c1nc3ccccc3nc1n2CCN1CCOCC1`, with 0.00651 µM [rising, full curve, poor fit]; and `COc1ccccc1CNc1ncnc2c1nnn2Cc1ccccc1`, with 0.562 µM [falling, full curve].
The same measure, in the same setting: for `O=C(NC1CCCC1)c1cc(-c2ccc(F)cc2)on1` the value was 1.12 µM [falling, full curve]; for `Nc1ncnc2c1ncn2[C@@H]1O[C@H](CNCC(O)CO)[C@@H](O)[C@H]1O` (stereo not given in full), 10.3 µM [rising, partial curve, poor fit].
Regarding `Cc1no[n+]([O-])c1COc1cccc(/C=N/Nc2nncn2N)c1`, the AC50 under setting [1] was 35.5 µM [falling, single point].
With `Cc1ccccc1C(=O)Nc1nnc(-c2ccco2)s1`, the concentration at half-maximal activity (AC50) under setting [1] was 6.31 µM [falling, partial curve, poor fit].
Still for that read-out and setting: then `CC(=O)NCCNC(=O)CCNC(=O)c1ccc(Cl)cc1`, with 6.51 µM [falling, single point].
For the compound `CCC(C)(C)n1nnnc1C(c1cc2cc(C)cc(C)c2[nH]c1=O)N1CCN(Cc2ccc3c(c2)OCO3)CC1` (stereo not given), under setting [1], the concentration at half-maximal activity (AC50) was 29.1 µM [falling, single point].
Still for that read-out and setting: then `COc1ccc(C2=NO[C@@H]3C(=O)N(c4cccc(C)c4C)C(=O)[C@H]23)cc1OC`, with 3.66 µM [rising, partial curve, poor fit].
On the same count and under the same terms, then `COc1ccc(CN2CC(C(=O)NCCN3CCOCC3)CC2=O)cc1` (stereo not given), with 0.366 µM [rising, full curve, poor fit].
Turning to `CCN1CCSc2ccc(C(=O)NCc3ccccc3C)cc21`, the AC50 under setting [1] is 17.8 µM [falling, single point].
On the same count and under the same terms, for `COC(=O)C(C)Sc1snnc1-c1ccccc1` (stereo not given) the value was 23.1 µM [rising, partial curve, poor fit]; for `C=CCCN([C@@H](C)C(=O)OC)S(=O)(=O)c1ccccc1Br`, 6.31 µM [rising, single point]; for `O=C(/C=C/c1ccccc1Cl)OCC(=O)c1ccc[nH]1`, 0.82 µM [rising, full curve, poor fit].
Turning to `CCOC(=O)c1cnc2ccc(C)cc2c1Sc1ccccc1`, under setting [1], the AC50 is 2.91 µM [falling, full curve, poor fit].
Regarding `Cc1ccc(CONC(=O)c2cccc(C)c2)cc1`, the half-maximal activity concentration (AC50) under setting [1] was 3.26 µM [falling, partial curve, poor fit].
On the same count and under the same terms, for `COc1ccccc1CN1CN(S(=O)(=O)c2ccccc2)c2nc3ccccc3nc21` the value was 35.5 µM [falling, single point]; for `CCN(C(=O)COC(=O)CNC(=O)C12CC3CC(CC(C3)C1)C2)C1CCS(=O)(=O)C1` (stereo not given), 0.00366 µM [rising, full curve, poor fit].
Consider `CCC(C)NC(=O)C(NS(=O)(=O)c1cccc2nsnc12)c1ccccc1` (stereo not given), for which, under setting [1], the half-maximal activity concentration (AC50) was 11.2 µM [rising, partial curve, poor fit].
For `CCOC(=O)N1CCN(CC(=O)Nc2cc(OCC)ccc2OCC)CC1`, the concentration at half-maximal activity (AC50) under setting [1] was 32.6 µM [rising, single point].
On the same count and under the same terms, for `COc1cc(/C=C/C(=O)OCC(=O)NCCc2ccccc2)ccc1OC(F)F` the value was 10 µM [rising, partial curve, poor fit].
Consider `O=C(/C(=C\c1ccccc1)c1nc2ccccc2[nH]1)c1ccc(Cl)cc1`, for which the AC50 reads like this: under setting [1], 16.4 µM [falling, single point]; under setting [2], 29.1 µM [rising, partial curve, poor fit].
`O=C(CN1CCN(C(=O)c2cncn2-c2ccccc2)CC1)Nc1ccccc1Cl`: the concentration at half-maximal activity (AC50) under setting [1] was 23.1 µM [falling, single point].
The same measure, in the same setting: then `CCOC(=O)c1c(C)[nH]c(C)c1C(=O)COC(=O)/C=C/c1ccccc1[N+](=O)[O-]`, with 11.6 µM [rising, partial curve, poor fit].
On the same count and under the same terms, then `CCOC(CNC(=O)Cn1nc(Cc2ccncc2)c2ccccc2c1=O)OCC`, with 2.51 µM [rising, full curve, poor fit].
The same measure, in the same setting: for `CCOc1ccc(C(C)=O)cc1CSc1nnc(N)s1` the value was 31.6 µM [rising, single point]; for `O=C1COc2ccc(C(=O)COC(=O)c3cc(S(=O)(=O)NCc4ccccc4)ccc3O)cc2N1`, 5.62 µM [rising, partial curve, poor fit].
With `NC(=O)CSc1nc2sc3c(c2c2ncnn12)CCCC3`, the concentration at half-maximal activity (AC50) under setting [1] was 20 µM [rising, partial curve, poor fit].
On to `Cc1sc2c(c1C)CN(C(C)(C)C)CN2C(=O)c1ccccc1`, for which the AC50 under setting [1] is 3.26 µM [falling, partial curve, poor fit].
As to `Cc1cc(NC(=O)CCCS(=O)(=O)c2nc(-c3cccs3)cc(C(F)(F)F)n2)no1`, under setting [1], the AC50 was 7.08 µM [falling, partial curve].
Still for that read-out and setting: then `Cc1ccc(C(=O)N2CCCC(C(=O)c3cc(F)ccc3F)C2)s1` (stereo not given), with 8.91 µM [rising, partial curve, poor fit]; and `COc1ccc(N=Nc2c(N)n[nH]c2N)cc1`, with 6.31 µM [falling, single point].
Still for that read-out and setting: then `Cn1cccc1/C=C(/C#N)c1ccc(F)cc1`, with 2.82 µM [rising, full curve, poor fit]; and `CC(NCc1ccc2c(c1)OCO2)C(=O)NC1CCCc2ccccc21` (stereo not given), with 0.116 µM [falling, full curve, poor fit]; and `Fc1ccc(-c2csc(-c3cccnc3)n2)cc1F`, with 0.891 µM [rising, full curve, poor fit].
Same read-out and setting: then `O=C(/C=C/NNC(=O)c1cccc(Br)c1)c1cccc(Br)c1`, with 2.91 µM [falling, full curve]; and `CN(C)/C=C1\N=C(c2ccc(Cl)cc2Cl)OC1=O`, with 4.11 µM [rising, single point]; and `CC(=O)CSc1nnc(-c2ccc3c(c2)OCO3)o1`, with 20.6 µM [falling, partial curve].
With `Cc1ccc(OCc2cc(C(=O)NC3CCc4ccccc43)no2)cn1` (stereo not given), under setting [1], the AC50 is 7.94 µM [falling, partial curve, poor fit].
For `CC1CCN(C(=O)c2[nH]cnc2C(=O)N[C@@H](C)c2ccccc2)CC1`, the AC50 under setting [1] was 5.8 µM [falling, partial curve, poor fit].
With `COc1ccc(Cl)cc1C(=O)Nc1ccc(NC(=O)C(C)C)cc1`, the AC50 under setting [1] was 0.126 µM [rising, full curve, poor fit].
Same read-out and setting: then `CCc1ccc(S(=O)(=O)Nc2cc(SCC(=O)O)c(O)c3ccccc23)cc1`, with 14.1 µM [falling, single point]; and `Cc1occc1-c1nnc(SCC(=O)NCCc2ccccc2)o1`, with 25.1 µM [rising, single point]; and `CN(C)CCN(C(=O)c1cccs1)c1nc2cc3c(cc2s1)OCCO3`, with 39.8 µM [falling, partial curve, poor fit].
On the same count and under the same terms, then `Cc1nc2c(Br)c3nc(C(F)(F)F)[nH]c3c(Br)c2[nH]1`, with 6.31 µM [rising, single point].
On to `CCOC(=O)c1ccc(N2CCN(c3cc(C)ccc3C)CC2)c(NC(=O)Nc2ccc(Cl)cc2)c1`, for which the half-maximal activity concentration (AC50) under setting [1] is 6.31 µM [rising, partial curve, poor fit].
Regarding `CCOc1ccc2[nH]c(C(=O)N/N=C/c3cc(OC)c(OC)c(OC)c3)cc2c1`, the concentration at half-maximal activity (AC50) under setting [1] is 5.62 µM [falling, single point].
With `CC1=NN(c2ccc(C(=O)O)cc2)C(=O)/C1=C/c1ccc(-c2ccccc2F)o1`, the AC50 under setting [1] was 3.16 µM [falling, full curve].
Still for that read-out and setting: for `O=C(CNC(=O)c1cccs1)N/N=C/c1ccccc1[N+](=O)[O-]` the value was 7.94 µM [falling, partial curve].
Consider `COCCCNC(=O)CC(=O)N/N=C\c1ccc(SC)cc1`, for which the AC50 under setting [2] is 35.5 µM [falling, single point].
As to `CC(Cn1cncn1)C(=O)N1CCN(S(=O)(=O)c2ccc(Cl)cc2)CC1` (stereo not given), the AC50 under setting [1] was 3.55 µM [falling, partial curve, poor fit].
On the same count and under the same terms, for `CCC(COC(C)=O)Nc1nc2c([nH]1)c(=O)n(C)c(=O)n2C` (stereo not given) the value was 3.98 µM [falling, full curve, poor fit].
The same measure, in the same setting: for `Cc1cccc(NC(=O)c2ccccc2OCC(=O)N2CCCC2)c1C` the value was 10 µM [rising, partial curve].
